Experimental data: US20200215537A1, “ULTRASENSITIVE CANTILEVER” (3P SENSE LIMITED, priority 2017, published 2020)

Test system: vancomycin susceptible receptor (VSR)
Assay: Cantilever binding assay, vancomycin against VSR coated cantilevers
Conditions: 70 μm wide cantilevers
Description: In the case of preparation of unpassivated cantilever, SAMs of D-VSR, L-VSR and inert PEG molecules were diluted to a concentration of 1 μM in pure ethanol. The diluted SAMs were individually injected into glass capillary tubes (King Precision Glass, Claremont, Calif., USA) which were arranged on the functionalization stage. The cantilevers were then functionalized by incubating them with individual SAMS inside the glass capillaries for 20 min. Care was taken to ensure that the hinge region was entirely covered with the SAM solution in order to ensure mechanical connectivity between the transduction arrays and hinge region.
The finding that a signal response is detectable even when the assembling of array networks is confined to only 30 μm of the geometrical width of the region covered while the corresponding geometeric length is fixed at 500 μm of the cantilever, prompted us to examine whether changing the dimensions of the cantilever itself whilst maintaining the mechanical connectivity of surface receptors has any impact on the signal sensitivity and reproducibility. […] This particular system was chosen because it gives relatively large signals and it has been previously shown that the quantitative Van-VSR binding constants can be measured^21 and so it can be used to redefine the limit of recognition of biologically relevant systems. […]

CN[C@H](CC(C)C)C(=O)N[C@H]1C(=O)N[C@@H](CC(N)=O)C(=O)N[C@H]2C(=O)N[C@H]3C(=O)N[C@H](C(=O)N[C@H](C(=O)O)c4cc(O)cc(O)c4-c4cc3ccc4O)[C@H](O)c3ccc(c(Cl)c3)Oc3cc2cc(c3O[C@@H]2O[C@H](CO)[C@@H](O)[C@H](O)[C@H]2O[C@H]2C[C@](C)(N)[C@H](O)[C@H](C)O2)Oc2ccc(cc2Cl)[C@H]1O [Van, vancomycin]
signal-to-noise ratio (SNR) (500 pM Van): 7
detection limits: 7e-10 g/mL
